Some of the results follow.
Assays:
Assay in all cases: log2 fold change, soluble protein after heating vs DMSO (PISA); higher = thermal stabilisation; K562 cells, 10 uM, 30 min; active = over 0.2 and 3.5 SD of the protein, either way, in both replicates (recomputed)
bafetinib = compound: Cc1ccc(NC(=O)c2ccc(CN3CC[C@H](N(C)C)C3)c(C(F)(F)F)c2)cc1Nc1nccc(-c2cncnc2)n1 [bafetinib]
Outline: (§1)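 K562 cells at 2×10^6 cells/mL were treated with 10 μM compound for 30 min. Aliquots were heated for 3 min across 48°C-58°C, pooled, and extracted in PBS with 0.5% NP-40 at 4°C; soluble protein was the supernatant after 21,000xg for 90 min. Soluble protein was quantified by TMTpro 16plex LC-MS/MS with channel sums equalised, and reported as log2 fold change in thermal stability against DMSO controls, with values from duplicates.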

Amino acid sequences for entries named in this document (tags omitted). A change or cut given only in a name is not applied to a line headed by its entry.
UniProt Q8IZN3: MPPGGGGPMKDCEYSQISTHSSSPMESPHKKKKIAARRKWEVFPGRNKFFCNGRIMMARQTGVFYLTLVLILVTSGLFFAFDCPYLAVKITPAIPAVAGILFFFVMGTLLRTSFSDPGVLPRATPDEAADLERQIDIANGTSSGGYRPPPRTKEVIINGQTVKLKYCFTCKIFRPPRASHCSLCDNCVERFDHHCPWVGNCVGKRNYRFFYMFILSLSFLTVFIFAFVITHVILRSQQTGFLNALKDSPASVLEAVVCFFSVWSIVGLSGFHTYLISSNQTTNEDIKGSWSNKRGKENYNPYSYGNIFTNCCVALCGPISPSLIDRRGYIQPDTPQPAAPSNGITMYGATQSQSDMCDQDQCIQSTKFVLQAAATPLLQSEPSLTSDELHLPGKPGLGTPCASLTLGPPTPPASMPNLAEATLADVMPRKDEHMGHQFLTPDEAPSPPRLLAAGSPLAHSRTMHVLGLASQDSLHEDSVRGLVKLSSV
UniProt Q96DT7: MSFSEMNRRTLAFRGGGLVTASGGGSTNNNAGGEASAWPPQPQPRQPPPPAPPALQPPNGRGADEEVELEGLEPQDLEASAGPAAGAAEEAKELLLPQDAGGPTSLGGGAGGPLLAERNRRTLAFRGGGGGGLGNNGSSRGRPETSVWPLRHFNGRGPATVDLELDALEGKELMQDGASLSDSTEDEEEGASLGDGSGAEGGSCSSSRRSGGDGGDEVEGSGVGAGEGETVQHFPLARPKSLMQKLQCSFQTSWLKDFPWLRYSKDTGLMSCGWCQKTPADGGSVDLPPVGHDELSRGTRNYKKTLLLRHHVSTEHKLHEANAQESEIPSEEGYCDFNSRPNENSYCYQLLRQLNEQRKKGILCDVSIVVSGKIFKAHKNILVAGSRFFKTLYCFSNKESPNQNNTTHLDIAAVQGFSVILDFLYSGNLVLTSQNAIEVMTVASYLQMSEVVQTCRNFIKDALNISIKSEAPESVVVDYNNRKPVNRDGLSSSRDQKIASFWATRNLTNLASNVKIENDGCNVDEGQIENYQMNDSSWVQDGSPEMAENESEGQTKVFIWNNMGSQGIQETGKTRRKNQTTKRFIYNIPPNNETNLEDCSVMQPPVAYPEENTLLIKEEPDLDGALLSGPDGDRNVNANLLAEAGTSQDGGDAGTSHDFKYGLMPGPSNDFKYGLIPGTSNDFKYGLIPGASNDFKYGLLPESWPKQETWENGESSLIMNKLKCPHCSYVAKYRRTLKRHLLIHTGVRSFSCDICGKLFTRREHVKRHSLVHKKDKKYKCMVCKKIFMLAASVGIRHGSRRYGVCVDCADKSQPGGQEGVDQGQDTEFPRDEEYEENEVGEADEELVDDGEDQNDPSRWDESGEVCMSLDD
UniProt Q5BJH7: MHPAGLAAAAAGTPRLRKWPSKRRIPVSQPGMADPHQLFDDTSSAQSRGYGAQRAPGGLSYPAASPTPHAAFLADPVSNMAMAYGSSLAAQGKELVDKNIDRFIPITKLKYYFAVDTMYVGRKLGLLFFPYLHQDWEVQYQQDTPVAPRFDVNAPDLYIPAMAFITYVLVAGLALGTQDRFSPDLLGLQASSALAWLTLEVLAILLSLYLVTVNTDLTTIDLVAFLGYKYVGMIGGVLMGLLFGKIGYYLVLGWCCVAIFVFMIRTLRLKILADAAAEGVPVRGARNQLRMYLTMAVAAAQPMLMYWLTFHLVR
UniProt Q86VM9: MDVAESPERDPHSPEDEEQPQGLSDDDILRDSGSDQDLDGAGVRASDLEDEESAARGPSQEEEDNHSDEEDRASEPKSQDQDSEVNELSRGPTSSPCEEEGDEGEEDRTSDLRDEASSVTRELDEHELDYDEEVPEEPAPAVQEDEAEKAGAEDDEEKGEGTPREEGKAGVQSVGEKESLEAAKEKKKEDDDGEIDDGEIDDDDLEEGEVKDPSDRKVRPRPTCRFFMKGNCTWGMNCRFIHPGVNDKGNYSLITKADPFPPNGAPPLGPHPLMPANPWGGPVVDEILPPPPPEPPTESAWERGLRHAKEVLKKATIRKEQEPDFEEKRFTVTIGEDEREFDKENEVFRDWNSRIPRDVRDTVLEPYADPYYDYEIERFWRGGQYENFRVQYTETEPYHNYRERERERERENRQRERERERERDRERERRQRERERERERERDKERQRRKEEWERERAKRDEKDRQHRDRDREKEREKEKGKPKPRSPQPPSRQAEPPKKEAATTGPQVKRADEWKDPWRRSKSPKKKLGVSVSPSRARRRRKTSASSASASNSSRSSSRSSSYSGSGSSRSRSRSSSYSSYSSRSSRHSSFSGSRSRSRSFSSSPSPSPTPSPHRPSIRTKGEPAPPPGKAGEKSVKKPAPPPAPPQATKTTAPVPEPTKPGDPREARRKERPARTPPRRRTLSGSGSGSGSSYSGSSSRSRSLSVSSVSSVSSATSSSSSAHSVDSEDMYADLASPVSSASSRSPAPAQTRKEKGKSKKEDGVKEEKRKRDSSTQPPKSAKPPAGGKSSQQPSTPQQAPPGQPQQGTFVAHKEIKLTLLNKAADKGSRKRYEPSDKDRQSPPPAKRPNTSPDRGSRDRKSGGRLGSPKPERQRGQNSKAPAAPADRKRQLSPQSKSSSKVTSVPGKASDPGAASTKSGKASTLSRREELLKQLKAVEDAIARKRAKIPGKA
UniProt Q9HAV4: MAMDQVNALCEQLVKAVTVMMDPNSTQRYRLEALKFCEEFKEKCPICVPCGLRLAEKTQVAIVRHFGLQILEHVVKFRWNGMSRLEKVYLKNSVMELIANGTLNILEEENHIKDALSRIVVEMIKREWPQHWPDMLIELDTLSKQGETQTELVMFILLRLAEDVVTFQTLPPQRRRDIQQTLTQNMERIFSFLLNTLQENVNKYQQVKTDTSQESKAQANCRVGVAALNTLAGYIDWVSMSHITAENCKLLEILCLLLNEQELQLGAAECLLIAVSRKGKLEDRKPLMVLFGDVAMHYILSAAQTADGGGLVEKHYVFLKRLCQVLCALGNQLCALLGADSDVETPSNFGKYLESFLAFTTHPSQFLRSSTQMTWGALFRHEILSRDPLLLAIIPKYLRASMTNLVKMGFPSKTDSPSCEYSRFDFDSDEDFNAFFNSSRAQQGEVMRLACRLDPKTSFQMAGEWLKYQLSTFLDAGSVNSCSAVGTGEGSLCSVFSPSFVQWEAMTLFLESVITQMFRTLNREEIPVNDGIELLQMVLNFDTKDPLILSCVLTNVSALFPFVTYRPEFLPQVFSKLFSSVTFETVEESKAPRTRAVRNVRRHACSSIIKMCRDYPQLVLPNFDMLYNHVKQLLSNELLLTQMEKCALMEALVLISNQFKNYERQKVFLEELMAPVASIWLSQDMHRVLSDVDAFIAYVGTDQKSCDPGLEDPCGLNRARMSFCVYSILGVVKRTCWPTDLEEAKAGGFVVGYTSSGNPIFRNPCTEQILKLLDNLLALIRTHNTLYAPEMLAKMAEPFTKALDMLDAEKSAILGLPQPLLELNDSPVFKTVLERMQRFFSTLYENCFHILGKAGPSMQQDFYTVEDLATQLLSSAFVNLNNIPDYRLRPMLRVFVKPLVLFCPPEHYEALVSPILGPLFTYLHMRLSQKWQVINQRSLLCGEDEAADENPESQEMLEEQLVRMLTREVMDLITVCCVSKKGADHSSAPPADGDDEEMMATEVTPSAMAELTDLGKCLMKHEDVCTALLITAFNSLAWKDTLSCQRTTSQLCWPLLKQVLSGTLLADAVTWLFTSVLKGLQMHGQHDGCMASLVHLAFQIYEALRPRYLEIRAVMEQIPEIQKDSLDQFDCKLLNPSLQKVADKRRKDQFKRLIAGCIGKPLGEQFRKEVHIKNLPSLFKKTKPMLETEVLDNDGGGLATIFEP
UniProt Q9ULJ3: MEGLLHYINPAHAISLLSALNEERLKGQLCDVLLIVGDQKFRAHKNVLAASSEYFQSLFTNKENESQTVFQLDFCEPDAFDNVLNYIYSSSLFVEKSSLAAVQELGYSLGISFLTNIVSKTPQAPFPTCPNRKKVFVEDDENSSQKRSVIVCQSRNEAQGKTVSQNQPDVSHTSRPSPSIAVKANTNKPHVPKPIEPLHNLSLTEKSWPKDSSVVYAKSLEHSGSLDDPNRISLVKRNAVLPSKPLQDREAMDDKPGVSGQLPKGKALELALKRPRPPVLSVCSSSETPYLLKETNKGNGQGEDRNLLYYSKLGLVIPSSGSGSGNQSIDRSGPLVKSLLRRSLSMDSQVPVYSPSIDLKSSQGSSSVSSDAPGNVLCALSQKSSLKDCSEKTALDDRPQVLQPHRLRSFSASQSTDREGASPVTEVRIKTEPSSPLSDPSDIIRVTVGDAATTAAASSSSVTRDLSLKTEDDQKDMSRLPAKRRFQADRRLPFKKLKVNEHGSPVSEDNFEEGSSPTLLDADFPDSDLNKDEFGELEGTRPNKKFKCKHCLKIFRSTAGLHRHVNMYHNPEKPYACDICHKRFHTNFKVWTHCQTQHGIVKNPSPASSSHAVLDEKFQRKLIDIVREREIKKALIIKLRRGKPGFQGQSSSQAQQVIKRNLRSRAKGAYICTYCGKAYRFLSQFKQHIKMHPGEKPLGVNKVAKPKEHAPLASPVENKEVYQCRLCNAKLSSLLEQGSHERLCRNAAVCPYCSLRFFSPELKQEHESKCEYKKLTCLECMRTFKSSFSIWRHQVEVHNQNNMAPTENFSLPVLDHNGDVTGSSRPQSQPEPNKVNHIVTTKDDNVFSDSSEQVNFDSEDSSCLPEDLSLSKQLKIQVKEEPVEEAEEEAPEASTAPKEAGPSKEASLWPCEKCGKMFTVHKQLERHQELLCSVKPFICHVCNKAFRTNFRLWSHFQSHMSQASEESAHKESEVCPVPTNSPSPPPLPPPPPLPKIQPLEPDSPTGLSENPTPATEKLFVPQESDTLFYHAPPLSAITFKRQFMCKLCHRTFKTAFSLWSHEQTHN
UniProt Q9ULC8: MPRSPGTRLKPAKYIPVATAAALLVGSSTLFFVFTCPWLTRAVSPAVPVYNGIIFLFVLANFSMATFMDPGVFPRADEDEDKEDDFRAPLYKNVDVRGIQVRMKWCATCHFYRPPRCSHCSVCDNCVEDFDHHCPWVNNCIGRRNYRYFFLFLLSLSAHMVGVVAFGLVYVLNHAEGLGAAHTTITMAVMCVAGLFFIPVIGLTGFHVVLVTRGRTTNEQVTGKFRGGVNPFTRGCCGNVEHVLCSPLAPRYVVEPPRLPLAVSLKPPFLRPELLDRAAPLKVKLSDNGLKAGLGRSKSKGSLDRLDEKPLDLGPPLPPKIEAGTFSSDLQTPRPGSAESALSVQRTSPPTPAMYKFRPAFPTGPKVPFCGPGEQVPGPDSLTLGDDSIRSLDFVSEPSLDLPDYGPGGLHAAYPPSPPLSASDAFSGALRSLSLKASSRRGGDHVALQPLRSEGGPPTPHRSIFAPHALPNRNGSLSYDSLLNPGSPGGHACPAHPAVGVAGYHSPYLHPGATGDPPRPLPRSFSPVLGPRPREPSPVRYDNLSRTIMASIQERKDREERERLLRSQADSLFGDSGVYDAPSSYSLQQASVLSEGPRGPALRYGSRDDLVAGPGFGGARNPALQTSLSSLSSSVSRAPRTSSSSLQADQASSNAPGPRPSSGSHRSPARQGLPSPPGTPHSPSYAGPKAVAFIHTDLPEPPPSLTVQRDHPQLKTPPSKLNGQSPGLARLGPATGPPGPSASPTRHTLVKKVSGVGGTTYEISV
UniProt Q9HCC9: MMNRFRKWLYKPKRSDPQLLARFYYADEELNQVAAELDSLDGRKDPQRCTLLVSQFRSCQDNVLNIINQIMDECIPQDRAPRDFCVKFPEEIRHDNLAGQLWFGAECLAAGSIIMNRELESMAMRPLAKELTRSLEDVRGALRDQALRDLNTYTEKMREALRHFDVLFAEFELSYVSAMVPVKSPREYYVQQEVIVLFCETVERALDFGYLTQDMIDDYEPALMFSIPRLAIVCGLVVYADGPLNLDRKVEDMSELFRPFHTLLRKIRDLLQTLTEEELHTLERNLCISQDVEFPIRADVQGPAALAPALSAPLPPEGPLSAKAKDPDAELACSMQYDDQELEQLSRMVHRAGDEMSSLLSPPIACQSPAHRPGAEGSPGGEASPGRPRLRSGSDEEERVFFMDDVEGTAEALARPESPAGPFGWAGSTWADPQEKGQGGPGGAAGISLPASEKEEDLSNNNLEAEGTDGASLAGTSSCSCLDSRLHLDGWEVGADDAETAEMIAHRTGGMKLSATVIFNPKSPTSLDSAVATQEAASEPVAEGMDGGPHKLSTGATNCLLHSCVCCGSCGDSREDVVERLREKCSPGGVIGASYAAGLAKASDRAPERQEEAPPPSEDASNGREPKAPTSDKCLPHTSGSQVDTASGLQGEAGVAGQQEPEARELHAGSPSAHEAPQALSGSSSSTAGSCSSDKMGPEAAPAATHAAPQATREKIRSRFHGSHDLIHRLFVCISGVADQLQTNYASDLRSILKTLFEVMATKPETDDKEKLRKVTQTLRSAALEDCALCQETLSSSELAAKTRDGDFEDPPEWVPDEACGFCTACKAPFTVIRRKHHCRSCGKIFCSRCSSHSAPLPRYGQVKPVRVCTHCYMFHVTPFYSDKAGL

nilotinib = compound: Cc1cn(-c2cc(NC(=O)c3ccc(C)c(Nc4nccc(-c5cccnc5)n4)c3)cc(C(F)(F)F)c2)cn1 [nilotinib]
Outline: as §1

[1] = compound: Cc1nc(Nc2n[nH]c3c2CN(C(=O)N[C@H](CN(C)C)c2ccccc2)C3(C)C)c2sccc2n1
Outline: as §1

dasatinib = compound: Cc1nc(Nc2ncc(C(=O)Nc3c(C)cccc3Cl)s2)cc(N2CCN(CCO)CC2)n1 [dasatinib]
Outline: as §1

[2] = compound: Cc1ncc(-c2ccnc(Nc3ccc(S(C)(=O)=O)cc3)n2)n1C(C)C
Outline: as §1

[3] = compound: Cn1cc(-c2ccc3nnc(C(F)(F)c4ccc5ncccc5c4)n3n2)cn1
Outline: as §1

tipifarnib = compound: Cn1cncc1[C@@](N)(c1ccc(Cl)cc1)c1ccc2c(c1)c(-c1cccc(Cl)c1)cc(=O)n2C [tipifarnib]
Outline: as §1

mubritinib = compound: FC(F)(F)c1ccc(/C=C/c2nc(COc3ccc(CCCCn4ccnn4)cc3)co2)cc1 [mubritinib]
Outline: as §1

[4] = compound: Cn1cc(-c2ccc3c(c2)CCN3C(=O)Cc2cccc(C(F)(F)F)c2)c2c(N)ncnc21
Outline: as §1

[5] = compound: Cc1cccc(CC(=O)N2CCc3c2ccc(-c2cn(C)c4ncnc(N)c24)c3F)n1
Outline: as §1

Measured: log2 fold change

ZEB2 (UniProt O60315)
inactive: bafetinib -0.017 | nilotinib 0.025 | [1] -0.149 | dasatinib -0.226 | [2] -0.05 | [3] -0.135 | tipifarnib 0.045 | mubritinib -0.114

ZDHHC14 (UniProt Q8IZN3)
inactive: bafetinib -0.119 | nilotinib -0.034 | [1] -0.03 | dasatinib 0.074 | [2] -0.025 | [4] 0.114 | [3] -0.063 | tipifarnib 0.046 | mubritinib -0.045

ZBTB10 (UniProt Q96DT7)
inactive: bafetinib -0.143 | [5] 0.001 | nilotinib -0.076 | [1] -0.145 | [2] -0.042 | [4] -0.173 | tipifarnib 0.012 | mubritinib -0.016

ZBTB3 (UniProt Q9H5J0)
inactive: bafetinib -0.062 | [5] 0.063 | nilotinib 0.084 | [1] -0.027 | [2] 0.036 | [4] 0.071 | [3] 0.014 | tipifarnib -0.111 | mubritinib 0.003

YBX3 isoform 2 (UniProt P16989)
inactive: bafetinib 0.033 | nilotinib 0.072 | [1] 0.042 | dasatinib 0.354 | [2] -0.003 | [4] -0.099 | [3] 0.148 | tipifarnib 0.071 | mubritinib -0.004

YIPF2 (UniProt Q9BWQ6)
inactive: bafetinib -0.003 | nilotinib 0.253 | [1] -0.211 | [2] 0.133 | [4] -0.125 | [3] -0.091

XP32 (UniProt Q5T750)
inactive: bafetinib -0.132 | [5] 0.051 | nilotinib 0.783 | [1] -0.105 | dasatinib -0.741 | [2] 0.622 | [4] 0.373 | [3] 0.409 | mubritinib -0.829

ZNF106 (UniProt Q9H2Y7)
inactive: bafetinib -0.014 | nilotinib 0.01 | [1] 0.015 | dasatinib -0.092 | [2] -0.105 | tipifarnib -0.061

ZDHHC5 (UniProt Q9C0B5)
inactive: bafetinib 0 | [5] -0.067 | nilotinib 0.091 | [1] -0.037 | dasatinib 0.019 | [2] -0.009 | [4] -0.02 | [3] -0.009 | tipifarnib 0.013 | mubritinib 0.025

YIF1B (UniProt Q5BJH7)
inactive: bafetinib -0.011 | [5] 0.042 | nilotinib 0.079 | [1] 0.031 | dasatinib -0.082 | [2] -0.026 | [4] -0.14 | [3] 0.045 | tipifarnib -0.124 | mubritinib 0.053

ZFP91 (UniProt Q96JP5)
inactive: bafetinib 0.191 | [5] -0.037 | nilotinib 0.023 | [1] -0.059 | dasatinib 0.009 | [2] -0.035 | [4] -0.161 | [3] -0.073 | tipifarnib 0.149 | mubritinib -0.076

ZBED1 (UniProt O96006)
inactive: bafetinib -0.079 | nilotinib 0.082 | [1] -0.256 | dasatinib -0.189 | [2] 0.017 | [4] 0.185 | tipifarnib -0.095

XRN1 (UniProt Q8IZH2)
inactive: bafetinib 0.044 | [5] 0.034 | nilotinib -0.291 | [1] -0.331 | dasatinib 0.017 | [2] 0.083 | [4] -0.058 | [3] -0.119 | mubritinib -0.037

XXYLT1 (UniProt Q8NBI6)
inactive: bafetinib 0.075 | [5] -0.069 | nilotinib 0.006 | [1] 0.08 | dasatinib -0.002 | [2] -0.015 | [4] -0.024 | [3] -0.008 | tipifarnib -0.027 | mubritinib -0.024

ZEB1 isoform 2 (UniProt P37275)
inactive: bafetinib 0.122 | [5] -0.065 | nilotinib 0.279 | [1] -0.096 | dasatinib 0.008 | [2] -0.025 | [4] 0.076 | tipifarnib 0.04 | mubritinib 0.073

ZC3H18 (UniProt Q86VM9)
inactive: bafetinib 0.033 | [5] -0.063 | nilotinib 0.099 | [1] -0.145 | dasatinib 0.038 | [2] -0.162 | [4] -0.03 | [3] 0.008 | tipifarnib 0.111 | mubritinib -0.042

XRCC3 (UniProt O43542)
inactive: bafetinib -0.115 | [5] -0.04 | nilotinib -0.071 | [1] 0.035 | dasatinib -0.068 | [2] -0.008 | [4] -0.023 | [3] -0.088 | tipifarnib 0.098 | mubritinib 0.079

ZFYVE27 isoform 2 (UniProt Q5T4F4)
inactive: bafetinib -0.007 | [5] 0.203 | nilotinib -0.032 | [1] 0.012 | dasatinib -0.019 | [2] -0.036 | [4] 0.046 | [3] -0.061 | tipifarnib -0.01 | mubritinib -0.033

ZMYM4 (UniProt Q5VZL5)
inactive: bafetinib -0.044 | [5] -0.03 | nilotinib 0 | [1] 0.071 | [2] -0.039 | [4] 0 | [3] -0.006 | mubritinib 0.274

YIF1A (UniProt O95070)
inactive: bafetinib 0.006 | [5] 0.037 | nilotinib -0.141 | [1] 0.044 | dasatinib 0.025 | [2] -0.064 | [4] 0.043 | [3] 0.102 | tipifarnib 0.103 | mubritinib 0.002

XPO5 (UniProt Q9HAV4)
inactive: bafetinib -0.037 | [5] 0.036 | nilotinib -0.07 | [1] -0.118 | dasatinib -0.11 | [2] -0.054 | [4] 0.026 | [3] 0.004 | tipifarnib -0.071 | mubritinib 0.006

ZBTB21 (UniProt Q9ULJ3)
inactive: bafetinib 0.194 | [5] 0.016 | nilotinib 0.023 | [1] -0.093 | dasatinib -0.005 | [2] 0.061 | [4] 0.122 | [3] -0.009 | tipifarnib -0.02 | mubritinib 0.003

ZDHHC8 isoform 3 (UniProt Q9ULC8)
inactive: bafetinib -0.03 | nilotinib 0.086 | [1] 0.013 | dasatinib -0.112 | [2] -0.014

ZDHHC2 (UniProt Q9UIJ5)
inactive: bafetinib -0.375 | [5] 0.007 | nilotinib -0.063 | [1] -0.057 | [2] 0.021 | [3] 0.054 | tipifarnib -0.022 | mubritinib 0.093

XK (UniProt P51811)
inactive: bafetinib -0.139 | [5] -0.167 | nilotinib -0.177 | [1] 0.005 | dasatinib 0.028 | [2] 0.028 | [4] 0.133 | tipifarnib 0.057 | mubritinib -0.042

ZBTB14 (UniProt O43829)
inactive: bafetinib -0.25 | [4] -0.19 | [3] -0.063 | mubritinib -0.038

ZFYVE28 (UniProt Q9HCC9)
inactive: bafetinib 0.159 | tipifarnib -0.096

YWHAZ (UniProt E7ESK7)
inactive: bafetinib -0.131 | dasatinib -0.094 | [4] 0.102 | [3] -0.007 | tipifarnib 0.127 | mubritinib 0.11

ZFC3H1 (UniProt O60293)
inactive: bafetinib -0.142 | nilotinib 0.031 | [1] -0.005 | [2] 0.202 | [3] 0.052 | mubritinib -0.171

ZFAND1 (UniProt Q8TCF1)
inactive: bafetinib -0.03 | nilotinib 0 | [1] -0.046 | [2] 0.059 | [3] -0.202 | tipifarnib -0.2 | mubritinib 0.009

2 successive records out of the list so far, for reference:
ZBTB3 (UniProt Q9H5J0)
inactive: bafetinib -0.062 | [5] 0.063 | nilotinib 0.084 | [1] -0.027 | [2] 0.036 | [4] 0.071 | [3] 0.014 | tipifarnib -0.111 | mubritinib 0.003

YBX3 isoform 2 (UniProt P16989)
inactive: bafetinib 0.033 | nilotinib 0.072 | [1] 0.042 | dasatinib 0.354 | [2] -0.003 | [4] -0.099 | [3] 0.148 | tipifarnib 0.071 | mubritinib -0.004

The results go on:

XRCC2 (UniProt O43543)
inactive: nilotinib -0.444 | [1] 0.082 | dasatinib -0.009 | [2] 0.015 | [4] 0.091 | tipifarnib -0.056 | mubritinib 0.086

Reference: the supplement of paper PMC10849652
